The values that follow come from paper PMC10353998 (2023).

By UniProt entry, the sequences of proteins in these tests, tags left out.
UniProt Q14671: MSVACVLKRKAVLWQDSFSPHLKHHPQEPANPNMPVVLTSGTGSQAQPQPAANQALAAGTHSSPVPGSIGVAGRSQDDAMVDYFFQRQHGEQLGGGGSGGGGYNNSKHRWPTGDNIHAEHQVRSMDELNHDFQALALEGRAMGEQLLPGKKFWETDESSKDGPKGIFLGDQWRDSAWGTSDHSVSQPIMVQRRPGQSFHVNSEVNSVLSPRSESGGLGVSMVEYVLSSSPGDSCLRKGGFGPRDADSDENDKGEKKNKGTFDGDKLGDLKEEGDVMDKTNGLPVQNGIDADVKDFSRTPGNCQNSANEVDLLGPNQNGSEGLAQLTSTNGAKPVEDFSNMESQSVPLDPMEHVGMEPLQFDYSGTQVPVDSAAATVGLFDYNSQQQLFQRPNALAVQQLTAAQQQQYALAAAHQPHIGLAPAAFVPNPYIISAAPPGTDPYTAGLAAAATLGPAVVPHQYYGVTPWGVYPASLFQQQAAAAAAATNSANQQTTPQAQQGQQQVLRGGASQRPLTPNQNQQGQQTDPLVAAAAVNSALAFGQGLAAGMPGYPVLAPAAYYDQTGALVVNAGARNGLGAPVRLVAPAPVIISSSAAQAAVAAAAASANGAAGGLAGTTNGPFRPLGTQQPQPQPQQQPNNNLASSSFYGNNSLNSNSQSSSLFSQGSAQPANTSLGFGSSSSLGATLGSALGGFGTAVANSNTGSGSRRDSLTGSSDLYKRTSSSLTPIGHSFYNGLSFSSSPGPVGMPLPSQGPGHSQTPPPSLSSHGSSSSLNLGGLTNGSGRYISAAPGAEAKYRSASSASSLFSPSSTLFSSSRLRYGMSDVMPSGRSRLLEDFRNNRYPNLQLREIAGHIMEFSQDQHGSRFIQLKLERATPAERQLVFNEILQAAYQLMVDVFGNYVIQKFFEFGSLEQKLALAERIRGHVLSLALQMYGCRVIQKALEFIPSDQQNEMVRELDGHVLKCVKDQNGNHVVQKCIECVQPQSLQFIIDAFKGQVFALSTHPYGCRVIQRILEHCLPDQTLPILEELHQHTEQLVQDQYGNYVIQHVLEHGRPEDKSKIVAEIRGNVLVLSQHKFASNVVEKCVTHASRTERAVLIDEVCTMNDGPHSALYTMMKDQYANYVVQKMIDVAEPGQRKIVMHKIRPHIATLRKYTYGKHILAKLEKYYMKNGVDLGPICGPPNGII

In assay [1] the target is T1, eGFP-GGSG-Flag-RBM20-P633L (human) (UniProt Q5T481).
T1 sequence: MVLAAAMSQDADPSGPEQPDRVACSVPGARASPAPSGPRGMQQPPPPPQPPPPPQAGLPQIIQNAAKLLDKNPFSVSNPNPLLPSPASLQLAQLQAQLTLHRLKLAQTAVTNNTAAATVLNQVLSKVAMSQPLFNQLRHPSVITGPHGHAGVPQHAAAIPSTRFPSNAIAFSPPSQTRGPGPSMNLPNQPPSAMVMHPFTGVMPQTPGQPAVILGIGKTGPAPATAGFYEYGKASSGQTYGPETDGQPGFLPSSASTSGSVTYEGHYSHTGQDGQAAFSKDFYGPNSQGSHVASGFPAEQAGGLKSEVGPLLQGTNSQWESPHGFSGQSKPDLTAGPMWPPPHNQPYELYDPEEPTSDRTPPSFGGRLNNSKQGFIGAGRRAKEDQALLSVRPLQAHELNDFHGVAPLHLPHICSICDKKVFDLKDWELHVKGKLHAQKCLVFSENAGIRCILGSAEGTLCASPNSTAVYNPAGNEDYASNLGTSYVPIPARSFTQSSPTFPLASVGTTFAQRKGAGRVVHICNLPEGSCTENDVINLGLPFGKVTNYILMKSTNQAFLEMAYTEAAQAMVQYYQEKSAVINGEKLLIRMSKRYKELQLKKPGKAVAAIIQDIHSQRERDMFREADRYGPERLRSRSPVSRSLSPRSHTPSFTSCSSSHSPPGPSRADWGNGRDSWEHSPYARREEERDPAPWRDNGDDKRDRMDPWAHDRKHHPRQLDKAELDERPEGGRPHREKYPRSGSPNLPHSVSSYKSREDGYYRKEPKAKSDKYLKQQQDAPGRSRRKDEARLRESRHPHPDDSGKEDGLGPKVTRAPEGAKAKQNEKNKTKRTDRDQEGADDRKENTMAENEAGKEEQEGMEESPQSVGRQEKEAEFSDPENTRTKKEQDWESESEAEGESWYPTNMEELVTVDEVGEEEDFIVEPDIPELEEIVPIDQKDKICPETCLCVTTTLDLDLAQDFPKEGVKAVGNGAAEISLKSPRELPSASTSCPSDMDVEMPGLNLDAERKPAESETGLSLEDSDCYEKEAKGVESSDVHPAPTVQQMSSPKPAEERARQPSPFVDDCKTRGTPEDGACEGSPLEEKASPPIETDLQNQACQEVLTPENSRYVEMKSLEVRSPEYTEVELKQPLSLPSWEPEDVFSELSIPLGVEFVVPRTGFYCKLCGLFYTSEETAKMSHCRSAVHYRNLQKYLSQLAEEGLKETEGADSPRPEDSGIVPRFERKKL
The assay can be described thus: affinity purification with mass spectrometry; GFP-Trap magnetic particles, 1 mg of cytoplasmic fraction of HeLa expressing eGFP-RBM20 (WT, P633L, R634Q, RSS), 4 °C 3 h; washes with 150 mM NaCl, 0.1% NP-40; TMT LC-MS/MS; hits against a no-bait control.

The target of assay [2] is T2, eGFP-GGSG-Flag-RBM20-R634Q (human) (UniProt Q5T481).
T2 sequence: T1 sequence with L633P, R634Q
The assay is described as above.

Positions count from the first letter of the chain named. No constants are given. Whether binding was seen depends on the method and setting. In cells and extracts the contact can be indirect. A yes stands for co-enrichment or nearness to the bait. Other partners may have been found. Sequences can lack the tags named with a protein.

On to PUM1 (from UniProt Q14671 1-1186), for which the binding entry in assay [1] and in assay [2] was “binds” throughout.
